Results reported in the supplement of paper PMC7661543.
The effect of the compound repeats well; differences between the knockouts mostly do not.

Tests used:
HCC-38 = assay: relative cell number vs DMSO control (72 h) (% of DMSO); higher = less growth inhibition (more cells)
Protocol: (§1)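 QMAP-Seq: a pool of 5 breast cancer cell lines (ZR-75-1, SKBR3, HCC-38, MDA-MB-231, BT-20), each carrying 12 doxycycline-inducible Cas9 sgRNA perturbations (11 knockouts plus non-targeting sgNT), was treated with compounds for 72 h at four 10-fold doses (10 nM-10 uM or 1 nM-1 uM range). Barcodes were amplified and sequenced, and cell number was interpolated from 293T spike-in standard curves. The result is expressed as % of the median of DMSO wells. Two biological replicates.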

BT-20 = assay: as above
Protocol: as §1

CN(C)C(=O)c1ccc(S(=O)(=O)c2ccc(NC(=O)[C@@](C)(O)C(F)(F)F)c(Cl)c2)cc1 [AZD7545]
relative cell number
Conditions	BT-20	HCC-38
sgRNA knockout: sgATF3, 10 nM	107	103
sgRNA knockout: sgATF3, 100 nM	90.3	88.5
sgRNA knockout: sgATF3, 1000 nM	101	102
sgRNA knockout: sgATF3, 10000 nM	88.8	84.2
sgRNA knockout: sgATF4, 10 nM	85.58	90.4
sgRNA knockout: sgATF4, 100 nM	114	80.4
sgRNA knockout: sgATF4, 1000 nM	107	98.6
sgRNA knockout: sgATF4, 10000 nM	90.3	77.5
sgRNA knockout: sgATF6, 10 nM	105	110
sgRNA knockout: sgATF6, 100 nM	106	97.8
sgRNA knockout: sgATF6, 1000 nM	85.2	98.7
sgRNA knockout: sgATF6, 10000 nM	95.9	81.3
sgRNA knockout: sgATG7, 10 nM	91.5	104
sgRNA knockout: sgATG7, 100 nM	107	86.7
sgRNA knockout: sgATG7, 1000 nM	103	101
sgRNA knockout: sgATG7, 10000 nM	80.2	82.6
sgRNA knockout: sgERN1, 10 nM	107	114
sgRNA knockout: sgERN1, 100 nM	88.5	94.6
sgRNA knockout: sgERN1, 1000 nM	98.3	99.8
sgRNA knockout: sgERN1, 10000 nM	76.1	71.7
sgRNA knockout: sgHSF1, 10 nM	106	103
sgRNA knockout: sgHSF1, 100 nM	85.4	101
sgRNA knockout: sgHSF1, 1000 nM	104	81.8
sgRNA knockout: sgHSF1, 10000 nM	78.3	79
sgRNA knockout: sgHSF2, 10 nM	114.6	97.9
sgRNA knockout: sgHSF2, 100 nM	96.6	101
sgRNA knockout: sgHSF2, 1000 nM	99.5	101
sgRNA knockout: sgHSF2, 10000 nM	89.4	80.5
sgRNA knockout: sgKEAP1, 10 nM	105	100
sgRNA knockout: sgKEAP1, 100 nM	88.4	91.1
sgRNA knockout: sgKEAP1, 1000 nM	95.3	91.6
sgRNA knockout: sgKEAP1, 10000 nM	88.8	75
sgRNA knockout: sgNFE2L2, 10 nM	98	95.9
sgRNA knockout: sgNFE2L2, 100 nM	80.4	80.7
sgRNA knockout: sgNFE2L2, 1000 nM	88.3	97.5
sgRNA knockout: sgNFE2L2, 10000 nM	57	84.1
sgRNA knockout: sgSLC35F2, 10 nM	115	94.6
sgRNA knockout: sgSLC35F2, 100 nM	90.2	80.1
sgRNA knockout: sgSLC35F2, 1000 nM	101	97.6
sgRNA knockout: sgSLC35F2, 10000 nM	77.4	87.9
sgRNA knockout: sgXBP1, 10 nM	123	98.4
sgRNA knockout: sgXBP1, 100 nM	89.9	83.5
sgRNA knockout: sgXBP1, 1000 nM	109	107
sgRNA knockout: sgXBP1, 10000 nM	83.4	80.4
